# Reference: the supplement of paper PMC8732350
# Counter-ions that a name gives are not always drawn. ± gives the standard deviation of the averaged measurements. The list shows a part of the results. This data set is noisy: repeats of one test often differ as much as different tests do.
# Test system: A549
# Assay: surface PD-L1 immunofluorescence intensity relative to IFN-gamma-only control (ratio); higher = more PD-L1 expression
# Conditions: 10 µM; exposure time 24 h; IFN-gamma 100 ng/mL
row,SMILES,surface PD-L1 immunofluorescence intensity
1,N#Cc1cc2nc(O)c(O)nc2cc1[N+](=O)[O-] [CNQX disodium salt],1.05
2,C[C@@H](CN1CCC(Cc2ccccc2)CC1)[C@@H](O)c1ccc(O)cc1 [Ro 25-6981 maleate],0.987
3,CNc1nc(Nc2cn(C(C)(C)C#N)nc2C)ncc1C(F)(F)F,0.974
4,CC1CC(OC(=O)c2ccccc2O)CC(C)(C)C1 (stereo not drawn) [Homosalate],1.04
5,CN(C)C(=O)[C@H](O)[C@H](Cc1ccccc1)NC(=O)c1cc2cc(Cl)ccc2[nH]1,0.992
6,CC1(C(=O)O)NCCc2cc(O)c(O)cc21 (stereo not drawn) [Salsolinol-1-carboxylic acid],1.02
7,Cl/C(=C\n1cncn1)c1ccc(Cl)cc1Cl [Loreclezole hydrochloride],1.03
8,CCC(=O)NC1Cc2ccccc2C(c2ccccc2)C1 (stereo not drawn),1.16
9,COc1ccc(C2CC(=O)c3c(O)cc(OC4OC(COC5OC(C)C(O)C(O)C5O)C(O)C(O)C4O)cc3O2)cc1OC (stereo not drawn) [Methyl-Hesperidin],1.1
10,N[C@@H](Cc1cc(I)c(Oc2ccc(O)c(I)c2)c(I)c1)C(=O)O [Liothyronine],0.965
11,CN1CCC(=C2c3ccccc3Sc3ccccc32)CC1 [Pimethixene maleate],1.03
12,Cc1cc(C)c(S(=O)(=O)Nc2ccccc2C(F)(F)F)c(C)c1,0.981
13,CC(C)[C@H](CO)Nc1nc(Nc2ccc(C(=O)O)c(Cl)c2)c2ncn(C(C)C)c2n1 [Purvalanol B],0.955
14,CCCN(C/C=C/I)C1CCc2cccc(O)c2C1 (stereo not drawn) [8-Hydroxy-PIPAT oxalate],1.1
15,C[C@@H]1C[C@H]2[C@@H]3CCC4=CC(=O)C=C[C@]4(C)[C@@]3(F)[C@@H](O)C[C@]2(C)[C@@]1(O)C(=O)COP(=O)(O)O [Dexamethasone Sodium Phosphate],0.798
16,OCCN(CCO)c1nc(N2CCCCC2)c2nc(N(CCO)CCO)nc(N3CCCCC3)c2n1 [Dipyridamole],1.04 ± 0.14
17,CC(CCCCC(=O)Nc1ccc(C(F)(F)F)cc1)NCCc1cnc[nH]1 (stereo not drawn) [HTMT dimaleate],1.04
18,Cc1ccc(NC(=O)c2cccc(C(C)(C)C#N)c2)cc1Nc1ccc2ncn(C)c(=O)c2c1,0.944 ± 0.056
19,O=C(O)c1ccccc1C(=O)Nc1ccc(S(=O)(=O)Nc2nccs2)cc1 [Phthalylsulfathiazole],1.1
20,CN(c1nccc(=O)[nH]1)C1CCN(c2nc3ccccc3n2Cc2ccc(F)cc2)CC1 [Mizolastine],0.966
21,CCS(=O)(=O)N1CCC[C@@H]2CN3CCc4cc(OC)ccc4[C@@H]3C[C@@H]21,1.06
22,CC(C)(C)[N+]([O-])=Cc1ccc(S(=O)(=O)O)cc1S(=O)(=O)O,0.988
23,CN1CCN(C(c2ccccc2)c2ccccc2)CC1 [Cyclizine hydrochloride],1.01
24,COC(=O)[C@@H]1CC2=CC(=O)CC[C@]2(C)[C@@]23O[C@@H]2C[C@@]2(C)[C@@H](CC[C@@]24CCC(=O)O4)[C@H]13 [Eplerenone],0.935 ± 0.05
25,CC(C)OC(=O)C1=CN(C(=O)c2ccc(F)c(F)c2)CC(C)(C)c2c1[nH]c1ccccc21,0.989
26,C[C@H](CCC(=O)NCCS(=O)(=O)O)[C@H]1CC[C@H]2[C@@H]3CC[C@@H]4C[C@H](O)CC[C@]4(C)[C@H]3C[C@H](O)[C@]12C [Taurodeoxycholic acid],1.07

# A second format for some results above:
row	SMILES	surface PD-L1 immunofluorescence intensity
4	CC1CC(OC(=O)c2ccccc2O)CC(C)(C)C1 (stereo not drawn) [Homosalate]	1.04
5	CN(C)C(=O)[C@H](O)[C@H](Cc1ccccc1)NC(=O)c1cc2cc(Cl)ccc2[nH]1	0.992
6	CC1(C(=O)O)NCCc2cc(O)c(O)cc21 (stereo not drawn) [Salsolinol-1-carboxylic acid]	1.02
7	Cl/C(=C\n1cncn1)c1ccc(Cl)cc1Cl [Loreclezole hydrochloride]	1.03
8	CCC(=O)NC1Cc2ccccc2C(c2ccccc2)C1 (stereo not drawn)	1.16

# (continued)

row,SMILES,surface PD-L1 immunofluorescence intensity
1,CCN(CC)CC(=O)Nc1c(C)cccc1C [Lidocaine hydrochloride],0.85
2,c1ccc2c(CC3=NCCN3)cccc2c1 [Naphazoline hydrochloride],0.917
3,CC(=O)OCC(=O)[C@@]12OC(C)(C)O[C@@H]1C[C@H]1[C@@H]3C[C@H](F)C4=CC(=O)C=C[C@]4(C)[C@@]3(F)[C@@H](O)C[C@@]12C [Fluocinonide (Vanos)],0.792
4,CC(=O)OCC(=O)[C@@]12OC(C)(C)O[C@@H]1C[C@H]1[C@@H]3C[C@H](F)C4=CC(=O)C=C[C@]4(C)[C@@]3(F)[C@@H](O)C[C@@]12C [Fluocinonide],0.91
5,CO[C@@H]1[C@@H](O[C@@H]2O[C@H](C)[C@@H](O[C@H]3C[C@@](C)(O)[C@@H](OC(=O)CC(C)C)[C@H](C)O3)[C@H](N(C)C)[C@H]2O)[C@@H](CC=O)C[C@@H](C)[C@@H](O)/C=C/C=C/C[C@@H](C)OC(=O)C[C@H]1OC(C)=O [Josamycin],0.899
6,O=c1oc2c(O)c(O)cc3c(=O)oc4c(O)c(O)cc1c4c23 [Ellagic acid],1.03
7,O=c1oc2c(O)c(O)cc3c(=O)oc4c(O)c(O)cc1c4c23 [Ellagic Acid],1.05
8,NS(=O)(=O)c1cc2c(cc1Cl)NC(C1CC3C=CC1C3)NS2(=O)=O (stereo not drawn) [Cyclothiazide],1.11
9,CC(=O)CC(c1ccccc1)c1c(O)c2ccccc2oc1=O (stereo not drawn) [Warfarin],1.04
10,CNC(=O)c1cc(Oc2ccc(NC(=O)Nc3ccc(Cl)c(C(F)(F)F)c3)cc2)ccn1 [Sorafenib (Nexavar)],0.981
11,"OCc1ccccc1O[C@@H]1O[C@H](CO)[C@@H](O)[C@H](O)[C@H]1O [Salicin (Salicoside, Salicine)]",1.14
12,COc1ccc(NS(=O)(=O)c2ccc(I)cc2)cc1N1CCN(C)CC1,0.942
13,CN1C(CCl)Nc2cc(Cl)c(S(N)(=O)=O)cc2S1(=O)=O (stereo not drawn) [Methyclothiazide],1.06
14,C=CC1=C(C(=O)O)N2C(=O)[C@@H](NC(=O)/C(=N\O)c3csc(N)n3)[C@H]2SC1 [Cefdinir (Omnicef)],1.04
15,C=CC1=C(C(=O)O)N2C(=O)[C@@H](NC(=O)/C(=N\O)c3csc(N)n3)[C@H]2SC1 [Cefdinir],0.985
16,Cc1cn([C@H]2C=C[C@@H](CO)O2)c(=O)[nH]c1=O [Stavudine],0.997 ± 0.054
17,CC(=O)NS(=O)(=O)c1ccc(N)cc1 [Sulfacetamide Sodium],0.969
18,CC(=O)NS(=O)(=O)c1ccc(N)cc1 [Sulfacetamide sodic hydrate],0.865
19,CN(C)CCCN=c1c2ccccc2n(C)c2[nH]c(=O)n(C)c(=O)c12,0.963
20,NC(=O)CCCCn1ccc(NC(N)=NCC(F)(F)F)n1,0.865
21,CCCCCCCC/C=C\CCCCCCCC(N)=O [Oleamide],1.01
22,COc1ccccc1N1CCN(CCCCNC(=O)c2ccc(-c3ccc(C(C)=O)cc3)cc2)CC1,0.899
23,CC(C)NC[C@@H](O)COc1ccc(CC(N)=O)cc1 [(R)-(+)-Atenolol],0.979
24,NS(=O)(=O)c1cc2c(cc1C(F)(F)F)NCNS2(=O)=O [Hydroflumethiazide],0.895
25,OC[C@H]1O[C@@H](n2cnc3c(N[C@H]4CCC[C@@H]4O)ncnc32)[C@H](O)[C@@H]1O,0.977
26,COC1(C2=NCCN2)COc2ccccc2O1 (stereo not drawn),1

# Taken from the entries so far (2 entries):
row,SMILES,surface PD-L1 immunofluorescence intensity
17,CC(=O)NS(=O)(=O)c1ccc(N)cc1 [Sulfacetamide Sodium],0.969
18,CC(=O)NS(=O)(=O)c1ccc(N)cc1 [Sulfacetamide sodic hydrate],0.865

# Further entries follow.

row,SMILES,surface PD-L1 immunofluorescence intensity
1,O=C(/C=C/c1ccc(O)cc1)c1ccc(O)cc1O [Isoliquiritigenin],0.985
2,Cc1c(NC(=O)c2cccnc2)c(=O)n(-c2ccccc2)n1C [Nifenazone],1.06
3,CS(=O)(=O)OCCCCOS(C)(=O)=O [Busulfan],0.958
4,OCc1c[nH]c2ccccc12 [Indole-3-carbinol],1.04
5,COC(=O)C1=C(C)NC(C)=C([N+](=O)[O-])[C@H]1c1ccccc1C(F)(F)F,1.06
6,O=C(Nc1ccccc1)C12CC1C(=NO)c1ccccc1O2 (stereo not drawn),1.02
7,CC(C)(CO)c1cc2cc(NC(=O)C3(c4ccc5c(c4)OC(F)(F)O5)CC3)c(F)cc2n1C[C@@H](O)CO,1.01
8,Cc1cnc(-c2cc(N3CCN(C(=O)CCS(C)(=O)=O)CC3)ncc2Cl)c(C)c1,1
9,CC[C@@H]1C(=O)OC[C@@H]1Cc1cncn1C [Pilocarpine nitrate],0.998
10,CC[C@@H]1C(=O)OC[C@@H]1Cc1cncn1C [Pilocarpine hydrochloride],1.06
11,CN1CCc2c(c3ccccc3n2Cc2ccc(C(=O)NO)cc2)C1 [Tubastatin A HCl],0.948
12,CC(=N)NCCCC[C@H](N)C(=O)O [L-NIL hydrochloride],0.96
13,COc1cc2nccc(Oc3ccc(NC(=O)NC4CC4)c(Cl)c3)c2cc1C(N)=O [E7080 (Lenvatinib)],0.9946 ± 0.0088
14,CCC(C)(Oc1ccc(C2(c3ccc(OC(C)(CC)C(=O)O)cc3)CCCCC2)cc1)C(=O)O (stereo not drawn) [Clinofibrate],0.991
15,C[C@@H](O[C@H]1OCCN(Cc2nn(P(=O)(O)O)c(=O)[nH]2)[C@H]1c1ccc(F)cc1)c1cc(C(F)(F)F)cc(C(F)(F)F)c1 [Fosaprepitant dimeglumine],1.05
16,CCn1c(=O)[nH]c2cc(Cl)c(Cl)cc21,0.937
17,CCCn1c(=O)c2[nH]c(C3CCCC3)nc2n(CCC)c1=O,0.986
18,O=C(CCNNC(=O)c1ccncc1)NCc1ccccc1 [Nialamide],1.05
19,N/C(=N\C(=O)c1nc(Cl)c(N)nc1N)NCc1ccccc1 [Benzamil],0.87
20,Cc1nc2ccccn2c(=O)c1CCN1CCC(C(=O)c2ccc(F)cc2)CC1 [Pirenperone],0.818
21,N[C@@H](Cn1ccc(=O)n(Cc2ccccc2C(=O)O)c1=O)C(=O)O,0.959
22,O=C1[C@@H]2[C@H]3CC[C@H](C3)[C@@H]2C(=O)N1C[C@@H]1CCCC[C@H]1CN1CCN(c2nsc3ccccc23)CC1 [Lurasidone HCl],0.877
23,CCCCC[C@H](O)/C=C/[C@H]1[C@H](O)CC(=O)[C@@H]1C/C=C\CCCC(=O)O [Prostaglandin E2],0.933
24,Cn1cnc2c(F)c(Nc3ccc(Br)cc3F)c(C(=O)NOCCO)cc21,1.01
25,NC(=O)c1cnccn1 [Pyrazinamide],1.09
26,NCCCCCc1c[nH]cn1 [Impentamine dihydrobromide],0.945
